In the supplement of paper PMC10849652 one finds log2 fold change data, which are given here for 21 targets.

Protein sequences, listed by entry. Tags and fused reporters are not part of them. Lines headed by an entry give the natural chain unless they say otherwise; changes in a name come on top.
UniProt Q8N2H4: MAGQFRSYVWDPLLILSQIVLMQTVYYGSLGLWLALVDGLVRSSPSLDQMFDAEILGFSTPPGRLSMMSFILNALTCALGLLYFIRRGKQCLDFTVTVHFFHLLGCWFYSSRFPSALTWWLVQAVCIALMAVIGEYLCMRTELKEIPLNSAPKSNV
UniProt Q8WXE9: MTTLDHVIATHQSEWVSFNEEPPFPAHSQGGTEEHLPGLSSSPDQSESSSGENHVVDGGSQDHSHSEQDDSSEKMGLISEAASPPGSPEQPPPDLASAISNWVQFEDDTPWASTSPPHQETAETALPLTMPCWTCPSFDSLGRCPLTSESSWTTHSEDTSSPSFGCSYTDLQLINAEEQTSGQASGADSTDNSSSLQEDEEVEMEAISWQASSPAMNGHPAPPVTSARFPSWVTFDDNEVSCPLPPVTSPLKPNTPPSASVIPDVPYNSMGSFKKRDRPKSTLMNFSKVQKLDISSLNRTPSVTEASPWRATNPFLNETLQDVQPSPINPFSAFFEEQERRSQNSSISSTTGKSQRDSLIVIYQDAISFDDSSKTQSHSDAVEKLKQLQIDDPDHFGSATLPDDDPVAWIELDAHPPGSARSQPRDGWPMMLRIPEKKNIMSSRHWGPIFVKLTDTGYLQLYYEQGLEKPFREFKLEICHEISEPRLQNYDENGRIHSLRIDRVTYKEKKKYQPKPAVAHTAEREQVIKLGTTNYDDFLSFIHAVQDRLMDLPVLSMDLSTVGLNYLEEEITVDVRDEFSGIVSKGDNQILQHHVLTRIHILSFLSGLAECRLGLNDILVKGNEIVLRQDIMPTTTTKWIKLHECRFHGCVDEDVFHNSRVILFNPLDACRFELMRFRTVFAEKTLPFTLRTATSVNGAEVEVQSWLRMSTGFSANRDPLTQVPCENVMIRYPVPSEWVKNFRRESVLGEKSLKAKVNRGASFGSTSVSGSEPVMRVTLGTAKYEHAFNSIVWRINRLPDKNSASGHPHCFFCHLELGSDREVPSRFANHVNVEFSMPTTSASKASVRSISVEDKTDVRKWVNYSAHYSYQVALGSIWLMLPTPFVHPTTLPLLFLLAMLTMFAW
UniProt Q9H7L9: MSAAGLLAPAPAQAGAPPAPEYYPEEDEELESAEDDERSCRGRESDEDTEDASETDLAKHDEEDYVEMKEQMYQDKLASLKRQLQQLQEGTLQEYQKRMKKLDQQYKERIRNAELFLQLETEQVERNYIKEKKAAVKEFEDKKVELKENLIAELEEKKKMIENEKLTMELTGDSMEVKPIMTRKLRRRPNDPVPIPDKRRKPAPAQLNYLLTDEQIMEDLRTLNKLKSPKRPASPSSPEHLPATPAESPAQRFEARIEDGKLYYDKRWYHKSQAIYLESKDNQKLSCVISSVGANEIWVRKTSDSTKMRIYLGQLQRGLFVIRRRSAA
UniProt P08842: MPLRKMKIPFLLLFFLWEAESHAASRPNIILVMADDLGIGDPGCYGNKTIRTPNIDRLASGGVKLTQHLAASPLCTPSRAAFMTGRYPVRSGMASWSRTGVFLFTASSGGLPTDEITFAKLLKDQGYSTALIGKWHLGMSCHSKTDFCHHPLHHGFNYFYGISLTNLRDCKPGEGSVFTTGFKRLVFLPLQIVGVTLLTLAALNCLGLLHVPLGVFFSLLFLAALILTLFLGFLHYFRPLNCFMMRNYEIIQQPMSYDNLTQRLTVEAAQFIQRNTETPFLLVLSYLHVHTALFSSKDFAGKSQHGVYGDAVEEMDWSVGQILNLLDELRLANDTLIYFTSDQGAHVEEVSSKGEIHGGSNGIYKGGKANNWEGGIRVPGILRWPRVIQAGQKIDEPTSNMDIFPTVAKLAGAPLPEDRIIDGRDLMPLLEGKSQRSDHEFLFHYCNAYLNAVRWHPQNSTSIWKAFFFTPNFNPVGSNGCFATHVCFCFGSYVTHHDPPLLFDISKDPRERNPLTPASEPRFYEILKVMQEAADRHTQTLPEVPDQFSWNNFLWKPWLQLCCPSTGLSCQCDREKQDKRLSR
UniProt Q9UBI4: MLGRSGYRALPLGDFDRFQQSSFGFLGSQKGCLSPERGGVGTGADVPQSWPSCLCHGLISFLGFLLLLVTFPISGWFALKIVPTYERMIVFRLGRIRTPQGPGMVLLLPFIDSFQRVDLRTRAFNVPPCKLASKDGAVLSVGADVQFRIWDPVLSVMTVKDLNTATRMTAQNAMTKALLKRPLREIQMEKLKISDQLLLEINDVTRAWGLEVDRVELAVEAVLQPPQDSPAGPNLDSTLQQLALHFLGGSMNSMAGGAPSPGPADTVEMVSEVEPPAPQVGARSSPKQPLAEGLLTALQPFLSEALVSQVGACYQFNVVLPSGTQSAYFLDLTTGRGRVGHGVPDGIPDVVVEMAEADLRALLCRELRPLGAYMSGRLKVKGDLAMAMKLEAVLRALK
UniProt Q96BN2: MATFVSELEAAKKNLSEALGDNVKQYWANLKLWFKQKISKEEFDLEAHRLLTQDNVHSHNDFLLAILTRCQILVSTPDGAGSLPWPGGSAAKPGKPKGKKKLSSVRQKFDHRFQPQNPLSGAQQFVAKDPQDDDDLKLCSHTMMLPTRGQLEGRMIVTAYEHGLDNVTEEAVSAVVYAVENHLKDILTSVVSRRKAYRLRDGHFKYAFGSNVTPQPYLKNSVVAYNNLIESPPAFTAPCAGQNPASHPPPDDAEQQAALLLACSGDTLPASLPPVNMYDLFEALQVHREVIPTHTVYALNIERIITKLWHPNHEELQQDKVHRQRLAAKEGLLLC
UniProt Q8TDR2: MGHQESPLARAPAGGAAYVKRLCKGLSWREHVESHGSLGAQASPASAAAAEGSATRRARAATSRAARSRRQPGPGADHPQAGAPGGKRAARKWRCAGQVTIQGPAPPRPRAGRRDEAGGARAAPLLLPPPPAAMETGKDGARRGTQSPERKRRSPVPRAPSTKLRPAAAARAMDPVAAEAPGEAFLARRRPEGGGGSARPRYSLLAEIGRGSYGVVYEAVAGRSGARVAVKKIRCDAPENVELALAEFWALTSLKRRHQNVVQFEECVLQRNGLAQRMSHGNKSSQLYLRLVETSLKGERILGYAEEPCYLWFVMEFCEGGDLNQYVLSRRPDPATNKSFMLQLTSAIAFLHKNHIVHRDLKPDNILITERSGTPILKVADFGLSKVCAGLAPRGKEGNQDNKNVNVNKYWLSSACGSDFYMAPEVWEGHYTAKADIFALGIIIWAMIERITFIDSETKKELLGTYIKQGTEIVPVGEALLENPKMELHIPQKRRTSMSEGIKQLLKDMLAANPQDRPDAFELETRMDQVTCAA
UniProt Q15022: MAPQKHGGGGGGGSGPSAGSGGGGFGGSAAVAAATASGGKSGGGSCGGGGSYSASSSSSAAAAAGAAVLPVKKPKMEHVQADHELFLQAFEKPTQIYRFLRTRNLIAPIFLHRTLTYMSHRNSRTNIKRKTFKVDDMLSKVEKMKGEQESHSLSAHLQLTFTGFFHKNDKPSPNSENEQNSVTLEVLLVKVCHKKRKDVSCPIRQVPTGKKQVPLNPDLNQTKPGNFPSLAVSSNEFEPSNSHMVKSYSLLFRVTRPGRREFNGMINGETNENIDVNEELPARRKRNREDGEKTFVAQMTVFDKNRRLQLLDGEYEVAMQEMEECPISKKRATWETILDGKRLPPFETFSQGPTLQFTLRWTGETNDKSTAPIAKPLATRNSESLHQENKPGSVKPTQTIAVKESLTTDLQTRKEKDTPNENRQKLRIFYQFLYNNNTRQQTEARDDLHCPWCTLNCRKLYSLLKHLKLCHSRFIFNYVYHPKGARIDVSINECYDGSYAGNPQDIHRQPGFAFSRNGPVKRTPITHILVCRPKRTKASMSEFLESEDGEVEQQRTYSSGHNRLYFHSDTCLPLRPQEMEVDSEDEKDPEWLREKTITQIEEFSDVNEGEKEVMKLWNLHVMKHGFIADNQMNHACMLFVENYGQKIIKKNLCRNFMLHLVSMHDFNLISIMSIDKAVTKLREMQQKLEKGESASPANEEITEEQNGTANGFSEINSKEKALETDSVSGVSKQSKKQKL
UniProt Q6P1N9: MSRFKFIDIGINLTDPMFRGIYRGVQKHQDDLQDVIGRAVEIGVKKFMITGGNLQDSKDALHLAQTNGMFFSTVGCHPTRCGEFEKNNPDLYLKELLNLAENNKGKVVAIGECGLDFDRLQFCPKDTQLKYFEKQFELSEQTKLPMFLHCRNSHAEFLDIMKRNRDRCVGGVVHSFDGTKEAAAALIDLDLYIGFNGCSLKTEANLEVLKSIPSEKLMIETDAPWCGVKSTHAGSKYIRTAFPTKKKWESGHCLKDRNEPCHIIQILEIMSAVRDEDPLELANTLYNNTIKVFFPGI
UniProt Q9NRP7: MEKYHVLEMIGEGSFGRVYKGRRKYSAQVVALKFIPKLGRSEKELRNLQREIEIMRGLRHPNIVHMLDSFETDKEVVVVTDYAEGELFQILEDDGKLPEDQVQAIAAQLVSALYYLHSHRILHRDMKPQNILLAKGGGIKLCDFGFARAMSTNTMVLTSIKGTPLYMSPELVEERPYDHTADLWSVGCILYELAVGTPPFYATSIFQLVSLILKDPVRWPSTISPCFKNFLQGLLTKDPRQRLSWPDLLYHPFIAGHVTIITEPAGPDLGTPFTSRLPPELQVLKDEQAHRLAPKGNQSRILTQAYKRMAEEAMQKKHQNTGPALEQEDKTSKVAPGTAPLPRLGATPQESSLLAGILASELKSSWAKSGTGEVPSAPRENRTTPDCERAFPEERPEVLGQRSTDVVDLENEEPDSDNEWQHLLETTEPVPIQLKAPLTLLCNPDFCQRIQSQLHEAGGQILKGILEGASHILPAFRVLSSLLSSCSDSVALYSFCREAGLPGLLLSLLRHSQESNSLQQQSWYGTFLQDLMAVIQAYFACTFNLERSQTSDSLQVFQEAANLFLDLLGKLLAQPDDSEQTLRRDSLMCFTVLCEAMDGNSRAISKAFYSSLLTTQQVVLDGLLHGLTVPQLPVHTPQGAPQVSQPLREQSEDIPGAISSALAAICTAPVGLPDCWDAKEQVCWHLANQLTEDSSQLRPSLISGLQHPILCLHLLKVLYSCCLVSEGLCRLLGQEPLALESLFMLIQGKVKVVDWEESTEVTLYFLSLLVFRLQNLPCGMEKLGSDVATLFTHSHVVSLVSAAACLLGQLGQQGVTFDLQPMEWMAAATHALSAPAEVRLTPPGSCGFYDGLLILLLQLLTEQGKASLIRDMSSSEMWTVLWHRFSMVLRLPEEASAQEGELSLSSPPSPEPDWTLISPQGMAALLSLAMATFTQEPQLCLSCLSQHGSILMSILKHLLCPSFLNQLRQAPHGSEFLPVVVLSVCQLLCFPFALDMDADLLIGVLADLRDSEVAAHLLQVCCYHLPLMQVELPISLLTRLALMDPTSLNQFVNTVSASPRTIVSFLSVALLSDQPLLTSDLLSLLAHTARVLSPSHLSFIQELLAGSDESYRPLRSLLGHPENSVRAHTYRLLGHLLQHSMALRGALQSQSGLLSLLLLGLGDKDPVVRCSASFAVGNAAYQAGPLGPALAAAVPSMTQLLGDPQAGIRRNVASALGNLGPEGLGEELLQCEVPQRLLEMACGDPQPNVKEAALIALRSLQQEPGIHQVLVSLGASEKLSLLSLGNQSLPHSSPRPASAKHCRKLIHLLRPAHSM
UniProt Q15544, whole entry, looked up: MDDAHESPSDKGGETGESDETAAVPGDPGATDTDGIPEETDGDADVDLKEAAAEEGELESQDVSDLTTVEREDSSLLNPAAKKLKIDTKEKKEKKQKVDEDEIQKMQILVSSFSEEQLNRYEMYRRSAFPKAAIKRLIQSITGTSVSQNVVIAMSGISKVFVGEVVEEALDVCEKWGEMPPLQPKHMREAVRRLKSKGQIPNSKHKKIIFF
UniProt Q9Y6J9: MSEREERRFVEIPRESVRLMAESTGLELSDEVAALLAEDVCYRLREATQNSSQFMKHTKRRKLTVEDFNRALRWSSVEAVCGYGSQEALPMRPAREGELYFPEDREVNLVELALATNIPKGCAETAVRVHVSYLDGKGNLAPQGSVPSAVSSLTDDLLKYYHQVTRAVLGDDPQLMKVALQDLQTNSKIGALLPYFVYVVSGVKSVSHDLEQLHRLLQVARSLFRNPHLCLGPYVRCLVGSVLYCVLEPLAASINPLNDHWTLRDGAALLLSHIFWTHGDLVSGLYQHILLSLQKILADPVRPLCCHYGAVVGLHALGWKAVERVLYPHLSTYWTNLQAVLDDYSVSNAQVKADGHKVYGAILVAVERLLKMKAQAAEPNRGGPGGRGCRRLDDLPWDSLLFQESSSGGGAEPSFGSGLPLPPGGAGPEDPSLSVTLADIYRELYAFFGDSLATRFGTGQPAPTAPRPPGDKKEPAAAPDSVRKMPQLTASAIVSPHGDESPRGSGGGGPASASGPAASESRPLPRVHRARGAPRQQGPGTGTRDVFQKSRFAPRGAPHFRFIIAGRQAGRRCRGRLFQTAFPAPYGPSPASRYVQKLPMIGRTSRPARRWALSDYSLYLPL

The list shows a part of the results.

Compound in the first experiment: CC[C@@H]1C(=O)N(C)c2cnc(Nc3ccc(C(=O)NC4CCN(C)CC4)cc3OC)nc2N1C1CCCC1
In words: log2 fold change, soluble protein after heating vs DMSO (PISA); higher = thermal stabilisation; K562 cells, 10 uM, 30 min; active = over 0.2 and 3.5 SD of the protein, either way, in both replicates (recomputed). In short, it runs like this: (§1)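 Values are thermal stability changes relative to control samples and are taken from duplicates. They are stated as log2 fold changes. Before quantification by TMTpro 16plex LC-MS/MS with equalised channel sums, K562 cells at 2×10^6 cells/mL were treated with 10 μM compound for 30 min, heated in aliquots for 3 min across 48°C-58°C, pooled, extracted in PBS with 0.5% NP-40 at 4°C, and centrifuged at 21,000xg for 90 min to give the soluble supernatant.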
Take SYS1 (UniProt Q8N2H4): the log2 fold change was inactive: -0.082.
The same measure, in the same setting: in the case of TAF5L (UniProt O75529) it was inactive: -0.043.
Same read-out and setting: in the case of STON2 isoform 3 (UniProt Q8WXE9) it was inactive: -0.042; in that of STK38L (UniProt Q9Y2H1), inactive: 0.071.
Still for that read-out and setting: in the case of SUDS3 (UniProt Q9H7L9) it was inactive: 0.017.
As to SUGT1 isoform 2 (UniProt Q9Y2Z0), the log2 fold change is inactive: -0.075.
On to STS (UniProt P08842), for which the log2 fold change is inactive: 0.158.
STOML1 (UniProt Q9UBI4): the log2 fold change is inactive: 0.038.
On the same count and under the same terms, under SYNE1 (UniProt Q8NF91) stands inactive: -0.01.

Compound in another experiment: CC[C@@H]1C(=O)N(C)c2cnc(Nc3ccc(C(=O)N[C@H]4CC[C@H](N5CCN(CC6CC6)CC5)CC4)cc3OC)nc2N1C(C)C [volasertib]
The experiment is described as above. The procedure, abridged: as §1
For the target TADA1 (UniProt Q96BN2), the log2 fold change is inactive: -0.2.
The same measure, in the same setting: in the case of STRN3 isoform 2 (UniProt Q13033) it was inactive: -0.171.
In the case of STK35 (UniProt Q8TDR2), the log2 fold change is inactive: 0.
On the same count and under the same terms, in the case of TAF4 (UniProt O00268) it was inactive: 0.054; in that of SYTL4 (UniProt Q96C24), inactive: -0.048.
SYS1 (UniProt Q8N2H4): the log2 fold change is inactive: -0.386.
On the same count and under the same terms, in the case of SUZ12 (UniProt Q15022) it was inactive: 0.126; in that of TATDN1 isoform 2 (UniProt Q6P1N9), inactive: 0.232; in that of STK3 isoform 2 (UniProt Q13188), inactive: 0.001.
On the same count and under the same terms, in the case of STK36 (UniProt Q9NRP7) it was inactive: 0.015; in that of TAZ (UniProt Q16635), inactive: -0.188.
As to TAF11 (UniProt Q15544), the log2 fold change was inactive: 0.039.
Same read-out and setting: in the case of SUGT1 isoform 2 (UniProt Q9Y2Z0) it was inactive: -0.01.
In the case of TAF6L (UniProt Q9Y6J9), the log2 fold change is active: -0.537.
